From publication PMC5173105 come the findings set out here.

The chains behind the UniProt entries cited, without tags or fusion partners. Where a name states a change or a piece, a line headed by the entry shows the natural chain unless it says otherwise.
UniProt O94817: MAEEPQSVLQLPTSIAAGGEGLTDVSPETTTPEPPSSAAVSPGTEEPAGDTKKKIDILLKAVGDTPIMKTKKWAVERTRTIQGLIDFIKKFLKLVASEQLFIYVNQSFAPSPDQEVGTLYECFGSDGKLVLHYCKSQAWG
UniProt Q9H1Y0: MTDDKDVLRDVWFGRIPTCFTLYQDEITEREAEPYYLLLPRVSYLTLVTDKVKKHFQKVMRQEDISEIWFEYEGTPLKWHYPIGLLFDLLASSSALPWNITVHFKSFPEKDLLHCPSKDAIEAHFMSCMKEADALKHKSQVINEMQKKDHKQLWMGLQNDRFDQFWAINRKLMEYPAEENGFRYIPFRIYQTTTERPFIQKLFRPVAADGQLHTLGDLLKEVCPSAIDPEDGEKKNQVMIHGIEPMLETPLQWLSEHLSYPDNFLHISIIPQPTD

These are yes or no findings as the source states them, for the method shown. Binding seen in cells or lysates may run through a third protein. Some entries that bind do so weakly or less than the wild type.

This test has as its target ATG12/ATG5 complex (human (endogenous in Mino)) (UniProt O94817+Q9H1Y0). Kind of test: co-IP; ATG12 immunoprecipitated overnight with 5 ug anti-Atg12 (6E5) mouse monoclonal antibody and protein A-Sepharose CL4B from 150 ug total lysate of plain and PLSCR1-expressing Mino cells, treated or not with RA/IFN-α for 72 hours; washed three times with lysis buffer; immunoblotting. In general terms: In western blotting, separated proteins are transferred to a membrane and probed.

B1: phospholipid scramblase 1 (PLSCR1), endogenous, induced by RA/IFN-α (protein, UniProt O15162 1-318)
chain: MDKQNSQMNASHPETNLPVGYPPQYPPTAFQGPPGYSGYPGPQVSYPPPPAGHSGPGPAGFPVPNQPVYNQPVYNQPVGAAGVPWMPAPQPPLNCPPGLEYLSQIDQILIHQQIELLEVLTGFETNNKYEIKNSFGQRVYFAAEDTDCCTRNCCGPSRPFTLRIIDNMGQEVITLERPLRCSSCCCPCCLQEIEIQAPPGVPIGYVIQTWHPCLPKFTIQNEKREDVLKISGPCVVCSCCGDVDFEIKSLDEQCVVGKISKHWTGILREAFTDADNFGIQFPLDLDVKMKAVMIGACFLIDFMFFESTGSQEQKSGVW
Take B1: the binding result is recorded as “binds”.

B2: ectopic PLSCR1 (pQCXIP-PLSCR1) in Mino cells (protein, UniProt O15162 1-318)
chain: MDKQNSQMNASHPETNLPVGYPPQYPPTAFQGPPGYSGYPGPQVSYPPPPAGHSGPGPAGFPVPNQPVYNQPVYNQPVGAAGVPWMPAPQPPLNCPPGLEYLSQIDQILIHQQIELLEVLTGFETNNKYEIKNSFGQRVYFAAEDTDCCTRNCCGPSRPFTLRIIDNMGQEVITLERPLRCSSCCCPCCLQEIEIQAPPGVPIGYVIQTWHPCLPKFTIQNEKREDVLKISGPCVVCSCCGDVDFEIKSLDEQCVVGKISKHWTGILREAFTDADNFGIQFPLDLDVKMKAVMIGACFLIDFMFFESTGSQEQKSGVW
Regarding B2, the binding result is given as “binds”.
